# According to patent US20100150879A1:
# Protein sequences, listed by entry. Tags and fused reporters are not part of them. Lines headed by an entry give the natural chain unless they say otherwise; changes in a name come on top. Chains listed by the source or under a name are the forms on record and can include a tag or linker.
# HA-tagged human wild-type LPP3 (pLNCX2-HA-WT-hLPP3) (O14495, form named): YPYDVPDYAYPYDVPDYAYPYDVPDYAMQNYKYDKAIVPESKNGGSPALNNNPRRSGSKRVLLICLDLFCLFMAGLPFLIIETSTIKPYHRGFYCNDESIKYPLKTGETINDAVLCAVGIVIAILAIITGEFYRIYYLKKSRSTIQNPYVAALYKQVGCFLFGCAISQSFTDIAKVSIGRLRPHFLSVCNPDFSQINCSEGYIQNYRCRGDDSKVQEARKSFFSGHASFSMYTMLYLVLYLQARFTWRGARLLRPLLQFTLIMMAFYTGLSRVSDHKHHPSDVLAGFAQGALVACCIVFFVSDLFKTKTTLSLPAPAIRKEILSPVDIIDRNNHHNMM
# These are yes or no findings as the source states them, for the method shown. For some assays here: Binding seen in cells or lysates may run through a third protein. Some results given as binding are weak or reduced against the parent protein; the word gives no strength.
# Columns and labels:
# [1] = molecular target: T1, p120-catenin (p120ctn), endogenous (human) (UniProt O60716); assay: immunoprecipitation and western blot, HEK293 cells stably expressing HA-LPP3
# T1 sequence (looked up): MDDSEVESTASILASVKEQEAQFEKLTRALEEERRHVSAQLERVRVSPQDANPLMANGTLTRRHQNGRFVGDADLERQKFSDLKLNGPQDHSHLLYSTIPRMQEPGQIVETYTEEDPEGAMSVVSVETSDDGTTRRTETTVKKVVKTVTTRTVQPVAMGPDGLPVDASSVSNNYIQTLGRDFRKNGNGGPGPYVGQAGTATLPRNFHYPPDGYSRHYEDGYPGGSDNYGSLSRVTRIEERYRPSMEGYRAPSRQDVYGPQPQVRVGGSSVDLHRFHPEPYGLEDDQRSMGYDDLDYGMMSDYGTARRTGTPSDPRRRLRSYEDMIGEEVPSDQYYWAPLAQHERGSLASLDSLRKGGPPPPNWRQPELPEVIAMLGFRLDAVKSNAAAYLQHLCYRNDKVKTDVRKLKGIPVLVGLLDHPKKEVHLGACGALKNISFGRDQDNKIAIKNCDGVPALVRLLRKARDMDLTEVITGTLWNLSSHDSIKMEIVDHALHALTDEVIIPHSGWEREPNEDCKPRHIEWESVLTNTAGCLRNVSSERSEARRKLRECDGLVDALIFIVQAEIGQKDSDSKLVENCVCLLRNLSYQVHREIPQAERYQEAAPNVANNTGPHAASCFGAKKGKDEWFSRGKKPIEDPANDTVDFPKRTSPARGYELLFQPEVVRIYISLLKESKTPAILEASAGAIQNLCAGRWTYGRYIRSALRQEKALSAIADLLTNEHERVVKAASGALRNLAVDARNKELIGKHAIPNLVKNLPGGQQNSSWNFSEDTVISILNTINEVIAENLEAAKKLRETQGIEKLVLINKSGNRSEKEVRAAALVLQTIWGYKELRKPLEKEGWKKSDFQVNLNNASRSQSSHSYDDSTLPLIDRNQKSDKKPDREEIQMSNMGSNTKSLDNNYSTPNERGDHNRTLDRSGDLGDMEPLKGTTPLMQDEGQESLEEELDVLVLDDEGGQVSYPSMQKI
# [2] = molecular target: T1, p120-catenin (p120ctn), endogenous (human); assay: cell surface biotinylation and anti-HA co-immunoprecipitation from ECs
substance,measurement,setting,value
HA-tagged human wild-type LPP3 (pLNCX2-HA-WT-hLPP3) (from UniProt O14495 1-311) (enzyme),binding,[1],binds
same,binding,[2],binds
